Experimental data as given in PubChem BioAssay AID624101 (Broad Institute, 2012).
In all, about 70,000 compounds went through this assay and about 120 (0.17%) were called active. Inconclusive results, whose numbers are uncertain, are shown with a selection of clear calls. No stated cut-off is given here; in the data, active means inhibition above about 34%; inconclusive means no clear call, values can overlap the other calls; inactive means below about 11%.

Protein sequences, listed by entry. Tags and fused reporters are not part of them.
UniProt O75874, whole entry R132H: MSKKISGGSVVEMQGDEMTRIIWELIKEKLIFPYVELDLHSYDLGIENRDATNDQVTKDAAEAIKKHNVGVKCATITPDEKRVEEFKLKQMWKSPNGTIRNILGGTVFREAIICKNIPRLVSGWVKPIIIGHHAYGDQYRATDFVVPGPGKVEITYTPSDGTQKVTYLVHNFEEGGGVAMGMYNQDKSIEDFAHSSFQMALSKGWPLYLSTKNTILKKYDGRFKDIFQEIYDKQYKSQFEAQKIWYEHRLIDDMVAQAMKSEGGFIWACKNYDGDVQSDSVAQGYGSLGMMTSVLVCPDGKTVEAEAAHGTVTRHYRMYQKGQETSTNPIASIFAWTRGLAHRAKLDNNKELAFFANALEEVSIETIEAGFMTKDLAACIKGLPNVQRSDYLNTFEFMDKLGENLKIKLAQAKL
UniProt O75874, whole entry, looked up: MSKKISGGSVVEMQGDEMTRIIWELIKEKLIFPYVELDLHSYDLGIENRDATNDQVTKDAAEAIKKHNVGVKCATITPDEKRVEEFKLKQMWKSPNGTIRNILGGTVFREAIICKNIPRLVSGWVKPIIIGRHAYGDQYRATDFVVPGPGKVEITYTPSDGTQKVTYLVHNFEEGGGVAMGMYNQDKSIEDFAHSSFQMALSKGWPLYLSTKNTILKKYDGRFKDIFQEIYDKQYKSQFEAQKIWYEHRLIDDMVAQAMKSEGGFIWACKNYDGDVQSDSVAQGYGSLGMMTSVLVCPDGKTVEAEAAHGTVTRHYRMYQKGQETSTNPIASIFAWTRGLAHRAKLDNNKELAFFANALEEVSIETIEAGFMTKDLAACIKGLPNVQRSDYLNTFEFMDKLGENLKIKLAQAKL

target: Isocitrate dehydrogenase [NADP] cytoplasmic (Homo sapiens) (UniProt O75874); experiment: PubChem AID 624101; details: IDH1 R132H reductase, diaphorase/resazurin fluorescence, 60 min; at 10 µM; stronger effect = higher value;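 further: 0% = DMSO and 100% = no enzyme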

| Compound | inhibition |
| --- | --- |
| CC(C)CC#Cc1ccc2c(c1)O[C@H](CN(C)C(=O)Cc1cccnc1)[C@H](C)CN([C@H](C)CO)S2(=O)=O | active: 51.8% |
| Cc1ccc(-c2nc3ccccc3c(=O)n2CCCn2ccnc2)cc1 | inconclusive: 32.5% |
| Cc1cc(C(=O)Nc2ccc(S(=O)(=O)Nc3nccs3)cc2)c(C)o1 | inconclusive: 36.4% |
| C[C@H]1CN([C@@H](C)CO)S(=O)(=O)c2ccc(-c3ccccc3F)cc2O[C@H]1CN(C)Cc1cccnc1 | inconclusive: 48.1% |
| C[C@H](CO)N1C[C@H](C)[C@H](CN(C)C(=O)Cc2ccncc2)Oc2cc(C3=CCCCC3)ccc2S1(=O)=O | inconclusive: 30.5% |
| COc1ccc(S(=O)(=O)N(C)C[C@H]2Oc3ccc(NC(=O)Cc4cn(C)c5ccccc45)cc3CC(=O)N([C@H](C)CO)C[C@H]2C)cc1 | inconclusive: 37.3% |
| C[C@H](CO)N1C[C@H](C)[C@H](CN(C)S(=O)(=O)c2cn(C)cn2)Oc2ncc(Br)cc2C1=O | inconclusive: 35.2% |
| O=C(C[C@@H]1C[C@H]2c3cc(NC(=O)NC4CCCCC4)ccc3O[C@H]2[C@H](CO)O1)NCc1ccccn1 | active: 102% |
| Cc1ccc(NC(=O)CCN2C(=O)c3ccccc3C2=O)cc1[N+](=O)[O-] | inactive: 0.274% |
| O=C1NC(=O)C(c2ccccc2[N+](=O)[O-])=C1Nc1ccc(O)c(Cl)c1 | inconclusive: 33.5% |
| C=CCNC(=O)[C@@H]1[C@H]2C(=O)O[C@H](c3ccccc3)[C@H](c3ccccc3)N2[C@H](c2ccc(O)cc2)[C@@]12C(=O)Nc1ccccc12 | inactive: 0.261% |
| C[C@@H]1CN([C@@H](C)CO)C(=O)c2cc(C3=CCCCC3)cnc2O[C@H]1CN(C)C(=O)Cc1cccnc1 | inconclusive: 30.2% |
| Cc1ccc(NS(=O)(=O)c2cccc(C(=O)Nc3ccccc3C(=O)O)c2)cc1 | inactive: -1.93% |
| Cc1cc(=O)n2c3ccccc3n(CC(O)Cn3ccnc3)c2c1C#N (stereo not drawn) | inconclusive: 39% |
| O=C(NCC[C@@H]1CC[C@@H](NC(=O)C2CC2)[C@@H](CO)O1)Nc1ccc(C(F)(F)F)cc1 | inconclusive: 52.1% |
| CC(NC(=O)c1ccccc1NC(=O)C1COc2ccccc2O1)c1ccccc1 (stereo not drawn) | inactive: 0.0215% |
| C[C@@H]1CCCCO[C@@H](CN(C)Cc2ccncc2)[C@@H](C)CN([C@@H](C)CO)C(=O)c2cc(NS(=O)(=O)c3ccc(F)cc3)ccc2O1 | inconclusive: 31.3% |
| C=CCN1C(=O)[C@@]2(O[C@@H](CCn3cc(CCO)nn3)[C@H]([Si](C)(C)c3ccc(OC)cc3)[C@H]2C)c2cc(NC(=O)c3ccc(OC)cc3)ccc21 | active: 65.6% |
| CCCC#Cc1ccc2c(c1)O[C@@H](CN(C)Cc1cccnc1)[C@@H](C)CN([C@@H](C)CO)S2(=O)=O | active: 52.5% |
| C[C@H]1CN([C@@H](C)CO)S(=O)(=O)c2ccc(Br)cc2O[C@@H]1CN(C)Cc1cccnc1 | inconclusive: 31.6% |
| C[C@H](CO)N1C[C@H](C)[C@H](CN(C)C(=O)Cc2ccncc2)Oc2cc(C#CC3CCCCC3)ccc2S1(=O)=O | inconclusive: 35.9% |

| Compound | inhibition |
| --- | --- |
| CCC(=O)N(C)C[C@H]1Oc2cc(C#Cc3ccncc3)ccc2S(=O)(=O)N([C@H](C)CO)C[C@H]1C | inconclusive: 39.9% |
| CNC[C@H]1Oc2cc(C#Cc3ccc(F)cc3)ccc2S(=O)(=O)N([C@@H](C)CO)C[C@H]1C | inconclusive: 51.2% |
| C[C@H]1CN([C@@H](C)CO)C(=O)c2cccc(NC(=O)c3nc4ccccc4s3)c2O[C@@H]1CN(C)Cc1ccncc1 | inconclusive: 44.4% |
| Clc1ccc(CSC(Cn2ccnc2)c2ccc(Cl)cc2Cl)cc1 (stereo not drawn) | inconclusive: 36.5% |
| Cc1ncc([N+](=O)[O-])n1Cc1n[nH]c(=S)n1C | inactive: 0.442% |
| COc1cccc(C(=O)COc2cccc(NC(=O)c3ccc([N+](=O)[O-])cc3)c2)c1 | inactive: -0.345% |
| C[C@@H]1CN([C@@H](C)CO)S(=O)(=O)c2ccc(C#CC(C)(C)O)cc2O[C@H]1CN(C)Cc1ccncc1 | inactive: 1.96% |
| COc1cc(C(=O)Nc2ccc(S(=O)(=O)Nc3nccs3)cc2)cc(OC)c1OC | inconclusive: 33.2% |
| COC(=O)/C=C/c1cc(O)ccc1O | active: 88.8% |
| C/C=C/c1ccc2c(c1)O[C@H](CN(C)Cc1cccnc1)[C@@H](C)CN([C@H](C)CO)S2(=O)=O | inconclusive: 37.8% |
| C[C@H](CO)N1C[C@H](C)[C@H](CN(C)Cc2cccnc2)Oc2cc(C3=CCCCC3)ccc2S1(=O)=O | inconclusive: 32.5% |
| COC(=O)c1c(NC(=S)Nc2cccc(NC(C)=O)c2)sc(C(=O)N(C)C)c1C | inactive: 1.64% |
| CCCNC(=O)C[C@@H]1C[C@H]2c3cc(NC(=O)CC4CC4)ccc3O[C@H]2[C@H](CO)O1 | inconclusive: 34.2% |
| Cc1ccc(S(=O)(=O)N[C@@H](Cc2ccccc2)C(=O)CCl)cc1 | inconclusive: 31.4% |
| O=C(CCc1ccc(O)cc1)CC(O)CCc1ccc(O)c(O)c1 (stereo not drawn) | active: 54.1% |
| COc1cccc(S(=O)(=O)Nc2ccc3c(c2)[C@H]2C[C@@H](CC(=O)NC4CCCCC4)O[C@H](CO)[C@H]2O3)c1 | inconclusive: 48.7% |
| COc1ccccc1C(=O)Nc1ccc2c(c1)OC[C@H](C)NC[C@@H](C)[C@@H](OC)CN(C)C2=O | inconclusive: 41% |
| C[C@@H]1CN([C@@H](C)CO)C(=O)Cc2cc(NC(=O)CCN3CCOCC3)ccc2O[C@H]1CN(C)Cc1ccccc1 | inconclusive: 32% |
| C[C@H]1CN([C@@H](C)CO)C(=O)Cc2cc(NC(=O)C3CC3)ccc2O[C@@H]1CN(C)S(=O)(=O)c1cccs1 | inconclusive: 30.9% |
| COc1ccc(NC(=O)N(C)C[C@H]2OCc3cnnn3CCCC(=O)N([C@H](C)CO)C[C@H]2C)c(OC)c1 | active: 53.9% |
| Cc1cc(-c2ccc(N=Nc3cc(S(=O)(=O)O)c4ccccc4c3N)c(C)c2)ccc1N=Nc1cc(S(=O)(=O)O)c2ccccc2c1N | active: 42.6% |

| Compound | inhibition |
| --- | --- |
| C[C@H](CO)N1C[C@H](C)[C@H](CN(C)Cc2ccncc2)Oc2ncccc2C1=O | inconclusive: 30.4% |
| CC(CCc1ccc(O)cc1)NCCc1ccc(O)c(O)c1 (stereo not drawn) | inconclusive: 36.2% |
| COc1ccc(-c2ccc3c(c2)O[C@H](CN(C)C(=O)c2ccccc2F)[C@H](C)CN([C@H](C)CO)S3(=O)=O)cc1 | inconclusive: 32.6% |
| COc1ccccc1S(=O)(=O)N[C@H]1CC[C@H](CCNC(=O)C2CCCC2)O[C@H]1CO | inconclusive: 39.8% |
| O=C(CCCCCC(=O)Nc1ccccc1O)N/N=C\c1cc(O)ccc1O | active: 49.8% |
| COc1ccccc1-c1cn(CC[C@H]2CC[C@@H](NC(=O)NC(C)C)[C@@H](CO)O2)nn1 | inconclusive: 32% |
| COc1ccccc1-c1cn(CC[C@H]2CC[C@H](NC(=O)NC(C)C)[C@H](CO)O2)nn1 | inconclusive: 34.6% |
| COc1cccc(OC)c1/C=N/NC(=O)CCCCCC(=O)NO | inactive: 0.412% |
| C[C@@H]1CN([C@@H](C)CO)S(=O)(=O)c2ccc(C3=CCCCC3)cc2O[C@H]1CN(C)C(=O)Cc1cccnc1 | active: 45.1% |
| CN(C)C(=O)C[C@@H]1C[C@@H]2c3cc(NC(=O)Nc4ccccc4F)ccc3O[C@@H]2[C@@H](CO)O1 | active: 38.5% |
| O=C(CCN1CCCCC1)NCC[C@H]1CC[C@H](NC(=O)Cc2cccnc2)[C@H](CO)O1 | active: 79.7% |
| COc1ccccc1-c1cnc2c(c1)C(=O)N([C@@H](C)CO)C[C@H](C)[C@@H](CN(C)C(=O)c1cccnc1)O2 | inconclusive: 31.9% |
| CCCNC(=O)N(C)C[C@@H]1Oc2ncc(C#Cc3ccncc3)cc2C(=O)N([C@@H](C)CO)C[C@@H]1C | inconclusive: 30.3% |
| O=S(=O)(Nc1ccc(O)c(Sc2nc3ccccc3s2)c1)c1ccccc1 | inconclusive: 33.1% |
| C/C=C/[C@H](CC(=O)N1Cc2ccccc2C[C@H]1CO)[Si](C)(C)c1ccc(OC)cc1 | inactive: -0.646% |
| Cc1nccn1CC(O)COc1ccccc1Br (stereo not drawn) | inconclusive: 32.2% |
| C[C@H](CO)N1C[C@H](C)[C@@H](CN(C)C(=O)Cc2ccncc2)Oc2cc(C#CC3CC3)ccc2S1(=O)=O | inconclusive: 32.4% |
| CO[C@H]1CN(C)C(=O)c2cc(NC(=O)c3nc4ccccc4s3)ccc2OC[C@H](C)N(Cc2ccncc2)C[C@@H]1C | inconclusive: 35.4% |
| CCOC(=O)c1cc(-c2ccccc2)sc1NC(=S)Nc1cnn(CC)c1C(N)=O | inconclusive: 40.4% |
| COCC#Cc1ccc2c(c1)O[C@@H](CN(C)Cc1cccnc1)[C@@H](C)CN([C@@H](C)CO)S2(=O)=O | active: 65.1% |
| CO[C@H]1CN(C)C(=O)c2ccc(NC(C)=O)cc2OC[C@H](C)N(Cc2nccs2)C[C@H]1C | inconclusive: 41.4% |

| Compound | inhibition |
| --- | --- |
| O=C(CN1C(=O)CNC1=O)Nc1cccc2ccccc12 | inactive: 0.0725% |
| COc1ccc(-c2nnc(SCc3ccc([N+](=O)[O-])c(OC)c3)n2-c2ccccc2)cc1 | inconclusive: 35.5% |
| O=C(Nc1ccc(S(=O)(=O)Nc2nccs2)cc1)C1COc2ccccc2O1 (stereo not drawn) | inconclusive: 35% |
| CC1=CCC(C(C)(C)O[C@@H]2O[C@H](C)[C@@H](O)[C@H](O)[C@H]2O)CC1 (stereo partly drawn) | inactive: 0.163% |
| O=C(CCCCC(=O)N/N=C/c1ccc(O)cc1Br)NO | inactive: 0.556% |
| C[C@@H]1CN([C@H](C)CO)S(=O)(=O)c2ccc(C3=CCCCC3)cc2O[C@@H]1CN(C)C(=O)Cc1cccnc1 | inconclusive: 31.9% |
| C[C@@H]1CCCCO[C@H](CN(C)C(=O)CCC(F)(F)F)[C@H](C)CN([C@@H](C)CO)C(=O)c2cc(NS(=O)(=O)c3ccccc3)ccc2O1 | active: 91.4% |
| Cn1c(=O)c2c(nc(SCC(N)=O)n2Cc2ccccc2F)n(C)c1=O | inactive: -0.0245% |
| COc1ccc(CN(C)C[C@@H]2Oc3ccc(NC(=O)C4CCCCC4)cc3CC(=O)N([C@@H](C)CO)C[C@H]2C)cc1 | active: 106% |
| C[C@@H]1CN([C@@H](C)CO)C(=O)Cc2cc(NC(=O)C3CCCCC3)ccc2O[C@H]1CN(C)C(=O)NC1CCCCC1 | inconclusive: 34% |
| CO[C@@H]1CN(C)C(=O)c2ccc(NC(=O)C3CCC3)cc2OC[C@H](C)N(Cc2ccncc2)C[C@@H]1C | inconclusive: 32.6% |
| C[C@H]1CN([C@@H](C)CO)C(=O)c2cc(NS(=O)(=O)c3ccc(F)cc3)ccc2O[C@H]1CN(C)Cc1ccc(Oc2ccccc2)cc1 | inconclusive: 32.9% |
| O=C(Cc1ccncc1)NCC[C@H]1CC[C@H](NC(=O)C2CCCC2)[C@H](CO)O1 | active: 70.9% |
| Cc1ccccc1-n1nnnc1C(c1ccccc1)N(C)Cc1cccc([N+](=O)[O-])c1 (stereo not drawn) | inconclusive: 33.5% |
| CC1(C)CC(=O)C2=C(C1)Nc1ccccc1N(C(=O)Cc1ccccc1)C2c1ccc(-c2ccccc2[N+](=O)[O-])o1 (stereo not drawn) | inactive: 0.548% |
| COc1ccc(-c2cc(C(F)(F)F)n3nc(C(=O)NCCN4CCOCC4)c(Br)c3n2)cc1 | inactive: 0.157% |
| Cc1onc(-c2ccccc2Cl)c1C(=O)Nc1ccc(S(=O)(=O)Nc2nccs2)cc1 | inconclusive: 41.6% |
| C[C@@H]1CN([C@H](C)CO)S(=O)(=O)c2ccc(Br)cc2O[C@H]1CN(C)Cc1cccnc1 | inconclusive: 34% |
| C[C@H](CO)N1C[C@H](C)[C@@H](CN(C)Cc2ccncc2)Oc2c(NC(=O)c3nc4ccccc4s3)cccc2C1=O | active: 35.4% |
| Cc1cc(C)c2nc(-c3ccncc3)cc(C(=O)NCCCn3ccnc3)c2c1 | inconclusive: 35.9% |

Fetched by structure from the list above:

| Compound | inhibition |
| --- | --- |
| C[C@@H]1CCCCO[C@H](CN(C)C(=O)CCC(F)(F)F)[C@H](C)CN([C@@H](C)CO)C(=O)c2cc(NS(=O)(=O)c3ccccc3)ccc2O1 | active: 91.4% |
| C[C@H]1CN([C@@H](C)CO)C(=O)c2cc(NS(=O)(=O)c3ccc(F)cc3)ccc2O[C@H]1CN(C)Cc1ccc(Oc2ccccc2)cc1 | inconclusive: 32.9% |
| COc1ccc(-c2nnc(SCc3ccc([N+](=O)[O-])c(OC)c3)n2-c2ccccc2)cc1 | inconclusive: 35.5% |
| Cc1ccccc1-n1nnnc1C(c1ccccc1)N(C)Cc1cccc([N+](=O)[O-])c1 (stereo not drawn) | inconclusive: 33.5% |
| CC1(C)CC(=O)C2=C(C1)Nc1ccccc1N(C(=O)Cc1ccccc1)C2c1ccc(-c2ccccc2[N+](=O)[O-])o1 (stereo not drawn) | inactive: 0.548% |
| Cn1c(=O)c2c(nc(SCC(N)=O)n2Cc2ccccc2F)n(C)c1=O | inactive: -0.0245% |
